Patent US9238631B2, “Radiolabeled amino acids for diagnostic imaging” (PIRAMAL IMAGING SA, priority 2011, dated 2016)
Some of these results come from one statement about several compounds together.

Molecular target: T1, xCT (SLC7A11) (Homo sapiens, UniProt Q9UPY5)
T1 construct: NCI-H460 tumor cells were co-incubated with the F-18 labeled tracer and several cold derivatives; endogenous in cells; host or cells: NCI-H460 tumor cells
T1 sequence (Q9UPY5 1-501): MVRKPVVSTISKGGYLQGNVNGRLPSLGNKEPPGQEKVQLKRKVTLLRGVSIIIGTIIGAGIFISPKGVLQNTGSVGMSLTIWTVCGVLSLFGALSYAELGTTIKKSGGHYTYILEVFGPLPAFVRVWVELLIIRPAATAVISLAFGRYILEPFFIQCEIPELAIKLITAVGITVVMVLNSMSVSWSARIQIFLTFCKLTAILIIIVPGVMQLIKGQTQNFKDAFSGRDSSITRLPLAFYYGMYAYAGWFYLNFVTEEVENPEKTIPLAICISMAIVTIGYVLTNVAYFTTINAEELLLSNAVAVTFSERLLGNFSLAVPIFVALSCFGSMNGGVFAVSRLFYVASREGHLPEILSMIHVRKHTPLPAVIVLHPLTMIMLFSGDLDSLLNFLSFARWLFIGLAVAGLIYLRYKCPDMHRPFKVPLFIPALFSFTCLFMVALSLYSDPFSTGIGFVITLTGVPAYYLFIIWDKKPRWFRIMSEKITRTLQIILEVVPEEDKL
T1 sequence (P08195 1-529 partner): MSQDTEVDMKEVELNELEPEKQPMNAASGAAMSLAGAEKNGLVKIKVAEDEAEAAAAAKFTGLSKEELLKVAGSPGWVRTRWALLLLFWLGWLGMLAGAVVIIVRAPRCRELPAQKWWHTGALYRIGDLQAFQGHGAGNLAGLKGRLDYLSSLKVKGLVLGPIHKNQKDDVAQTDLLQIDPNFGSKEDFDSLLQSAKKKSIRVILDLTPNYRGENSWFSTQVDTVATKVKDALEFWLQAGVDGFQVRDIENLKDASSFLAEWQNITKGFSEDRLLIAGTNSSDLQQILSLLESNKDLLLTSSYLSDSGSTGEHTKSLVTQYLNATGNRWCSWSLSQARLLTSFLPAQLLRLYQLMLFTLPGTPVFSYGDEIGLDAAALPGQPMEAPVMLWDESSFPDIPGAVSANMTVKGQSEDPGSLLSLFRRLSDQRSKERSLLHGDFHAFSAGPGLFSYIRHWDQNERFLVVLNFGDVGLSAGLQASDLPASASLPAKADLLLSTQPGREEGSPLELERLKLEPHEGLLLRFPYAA
Assay: Competition profile indicating uptake via xCT (SLC7A11)
Assay type: cell-based
Conditions: competitor 1 mM, NCI-H460 cells
Experimental: For determination of the responsible uptake mechanism, NCI-H460 tumor cells were co-incubated with the F-18 labeled tracer and several cold derivatives. These derivatives were used at a concentration of 1 mM, which is a large excess compared to the tracer. L-Glutamic acid, L-cystine, Carboxyphenylglycine (CPG) were used as competitors. In addition, also D-Glutamic acid, as well as L-aspartic acid and D-aspartic acid were used in this competition experiments. […] The same experiments were performed using [^18F]-1, [^18F]-4, [^18F]-9, [^18F]-8, [^18F]-25 and [^18F]-22.

O=C(O)NC(C(=O)O)c1ccccc1 (stereo not shown) [Carboxyphenylglycine (CPG), Carboxyphenylglycine, reference compound]
reduction of [^18F]-12 uptake by excess competitor: more than 90%
